Paper PMC4873810
Results are given in words; binding and its absence hold for the method and conditions named. Binding seen in cells or lysates may run through a third protein. Sequences can lack the tags named with a protein.

Target: T1, Scube2 (signal peptide, CUB domain, epidermal growth factor (EGF)-like protein 2), full-length, FLAG-tagged (human) (UniProt Q9NQ36)
T1 sequence: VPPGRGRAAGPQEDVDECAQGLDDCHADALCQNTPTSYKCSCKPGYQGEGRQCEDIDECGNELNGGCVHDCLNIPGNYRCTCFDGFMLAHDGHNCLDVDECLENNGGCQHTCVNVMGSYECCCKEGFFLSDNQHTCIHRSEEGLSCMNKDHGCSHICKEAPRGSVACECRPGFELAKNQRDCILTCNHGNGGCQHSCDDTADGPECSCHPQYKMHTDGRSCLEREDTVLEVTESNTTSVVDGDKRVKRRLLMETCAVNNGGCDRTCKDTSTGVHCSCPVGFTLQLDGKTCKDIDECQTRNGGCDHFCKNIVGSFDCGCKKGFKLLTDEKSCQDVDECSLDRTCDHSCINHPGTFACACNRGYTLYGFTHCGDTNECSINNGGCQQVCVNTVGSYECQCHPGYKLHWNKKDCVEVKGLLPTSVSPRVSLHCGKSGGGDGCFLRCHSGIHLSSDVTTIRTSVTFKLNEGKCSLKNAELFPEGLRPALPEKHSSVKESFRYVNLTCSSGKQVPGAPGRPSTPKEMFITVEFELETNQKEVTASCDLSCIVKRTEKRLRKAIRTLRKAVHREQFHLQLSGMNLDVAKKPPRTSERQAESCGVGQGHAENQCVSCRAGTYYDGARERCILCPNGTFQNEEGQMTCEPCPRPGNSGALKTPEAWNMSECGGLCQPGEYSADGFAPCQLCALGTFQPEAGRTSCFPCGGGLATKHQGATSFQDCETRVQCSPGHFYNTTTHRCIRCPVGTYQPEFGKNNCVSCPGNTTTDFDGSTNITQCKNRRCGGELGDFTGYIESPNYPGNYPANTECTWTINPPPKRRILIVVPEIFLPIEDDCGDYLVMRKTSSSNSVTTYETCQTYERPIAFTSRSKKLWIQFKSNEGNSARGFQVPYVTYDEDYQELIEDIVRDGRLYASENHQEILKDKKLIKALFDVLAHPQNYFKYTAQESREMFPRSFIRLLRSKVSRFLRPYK
Assay: co-IP; reciprocal: α-FLAG antibodies coupled to Protein A beads precipitate Scube2 or Scube2Δ from media; blot for Shh

- binding: no binding
Substance: full-length Shh^C25S (mouse)
